Source: publication doi:10.1101/2021.11.24.469949
Where two headings read alike, the source gives them in different places. Results are given in words; binding and its absence hold for the method and conditions named. In cells and extracts the contact can be indirect. A yes stands for co-enrichment or nearness to the bait. Other partners may have been found. For some assays here: Sequences can lack the tags named with a protein.

Amino acid sequences for entries named in this document (tags omitted).
UniProt Q94K07: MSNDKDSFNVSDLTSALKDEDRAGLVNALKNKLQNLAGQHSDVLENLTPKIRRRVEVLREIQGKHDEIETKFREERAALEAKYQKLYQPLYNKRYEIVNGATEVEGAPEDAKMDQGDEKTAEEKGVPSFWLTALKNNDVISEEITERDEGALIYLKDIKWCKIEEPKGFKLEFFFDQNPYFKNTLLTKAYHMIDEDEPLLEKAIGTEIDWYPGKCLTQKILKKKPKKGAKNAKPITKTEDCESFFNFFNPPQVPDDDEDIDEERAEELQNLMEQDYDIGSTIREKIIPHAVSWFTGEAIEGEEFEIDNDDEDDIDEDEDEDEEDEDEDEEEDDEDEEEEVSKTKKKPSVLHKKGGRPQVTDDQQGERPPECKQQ

Tests used:
Experiment in all cases: affinity purification with mass spectrometry
[1] = target: T1, ZPR2-tdTomato-3xFLAG (Arabidopsis) (UniProt Q9LZX5)
T1 sequence: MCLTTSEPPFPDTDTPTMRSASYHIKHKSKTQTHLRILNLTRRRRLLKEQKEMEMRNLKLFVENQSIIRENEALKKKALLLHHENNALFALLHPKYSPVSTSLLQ

[2] = target: T2, 3xFLAG tagged CNA (Arabidopsis) (UniProt Q9ZU11)
T2 sequence: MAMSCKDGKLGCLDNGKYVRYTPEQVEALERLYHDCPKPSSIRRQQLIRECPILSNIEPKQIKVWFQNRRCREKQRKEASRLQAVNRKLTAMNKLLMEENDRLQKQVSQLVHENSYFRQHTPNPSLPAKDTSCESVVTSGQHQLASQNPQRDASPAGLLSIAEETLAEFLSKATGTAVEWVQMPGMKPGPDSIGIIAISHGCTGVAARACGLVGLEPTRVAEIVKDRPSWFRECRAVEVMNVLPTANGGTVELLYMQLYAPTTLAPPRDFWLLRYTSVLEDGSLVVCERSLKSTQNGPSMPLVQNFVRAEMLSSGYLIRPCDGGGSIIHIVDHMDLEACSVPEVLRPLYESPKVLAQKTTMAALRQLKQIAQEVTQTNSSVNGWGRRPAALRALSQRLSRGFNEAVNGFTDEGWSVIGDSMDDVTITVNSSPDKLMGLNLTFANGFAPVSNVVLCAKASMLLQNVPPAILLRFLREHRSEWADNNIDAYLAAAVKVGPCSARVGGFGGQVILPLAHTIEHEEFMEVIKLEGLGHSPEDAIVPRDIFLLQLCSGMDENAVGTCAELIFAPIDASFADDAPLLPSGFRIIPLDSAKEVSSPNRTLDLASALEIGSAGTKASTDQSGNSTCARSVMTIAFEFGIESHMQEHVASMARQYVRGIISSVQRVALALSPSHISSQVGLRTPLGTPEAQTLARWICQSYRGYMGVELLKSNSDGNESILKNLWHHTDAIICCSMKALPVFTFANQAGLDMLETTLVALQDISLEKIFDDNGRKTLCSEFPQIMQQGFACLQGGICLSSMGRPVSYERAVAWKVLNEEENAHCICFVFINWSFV

[3] = target: T3, 3xFLAG tagged PHB (Arabidopsis) (UniProt O04291)
T3 sequence: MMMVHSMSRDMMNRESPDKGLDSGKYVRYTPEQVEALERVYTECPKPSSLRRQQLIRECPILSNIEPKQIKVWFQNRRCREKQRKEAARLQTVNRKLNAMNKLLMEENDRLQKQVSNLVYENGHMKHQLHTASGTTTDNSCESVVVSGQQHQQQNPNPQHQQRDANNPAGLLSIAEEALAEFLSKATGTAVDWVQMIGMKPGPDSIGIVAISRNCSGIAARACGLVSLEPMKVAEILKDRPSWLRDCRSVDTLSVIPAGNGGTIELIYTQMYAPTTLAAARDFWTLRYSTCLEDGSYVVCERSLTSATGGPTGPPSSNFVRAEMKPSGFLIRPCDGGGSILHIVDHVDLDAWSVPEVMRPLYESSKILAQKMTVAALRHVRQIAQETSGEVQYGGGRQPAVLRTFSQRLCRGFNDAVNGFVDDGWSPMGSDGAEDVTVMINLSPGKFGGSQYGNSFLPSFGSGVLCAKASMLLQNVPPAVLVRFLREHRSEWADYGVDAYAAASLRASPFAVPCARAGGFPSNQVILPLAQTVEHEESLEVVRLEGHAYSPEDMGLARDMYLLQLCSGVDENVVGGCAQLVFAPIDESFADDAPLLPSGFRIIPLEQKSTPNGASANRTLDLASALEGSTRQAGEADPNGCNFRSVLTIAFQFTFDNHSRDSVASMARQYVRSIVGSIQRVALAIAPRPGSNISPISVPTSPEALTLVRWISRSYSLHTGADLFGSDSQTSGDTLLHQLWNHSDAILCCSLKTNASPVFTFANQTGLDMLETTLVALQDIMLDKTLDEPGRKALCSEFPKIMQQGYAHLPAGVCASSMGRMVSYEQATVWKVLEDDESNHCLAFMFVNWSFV

[4] = target: T4, ZPR3-tdTomato-3xFLAG (Arabidopsis) (UniProt Q9LXI8)
T4 sequence: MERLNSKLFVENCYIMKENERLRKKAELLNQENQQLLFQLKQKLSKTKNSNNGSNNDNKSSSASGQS

[5] = target: T5, ZPR4-tdTomato-3xFLAG (Arabidopsis) (UniProt Q56WL5)
T5 sequence: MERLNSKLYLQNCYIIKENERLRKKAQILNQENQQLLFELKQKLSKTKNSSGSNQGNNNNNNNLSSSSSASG

[6] = target: T1, ZPR2-tdTomato-3xFLAG (Arabidopsis); remark: listed apart in the source
[7] = target: ZPR1-tdTomato-3xFLAG (Arabidopsis)
[8] = target: T6, 3xFLAG tagged REV (Arabidopsis) (UniProt Q9SE43)
T6 sequence: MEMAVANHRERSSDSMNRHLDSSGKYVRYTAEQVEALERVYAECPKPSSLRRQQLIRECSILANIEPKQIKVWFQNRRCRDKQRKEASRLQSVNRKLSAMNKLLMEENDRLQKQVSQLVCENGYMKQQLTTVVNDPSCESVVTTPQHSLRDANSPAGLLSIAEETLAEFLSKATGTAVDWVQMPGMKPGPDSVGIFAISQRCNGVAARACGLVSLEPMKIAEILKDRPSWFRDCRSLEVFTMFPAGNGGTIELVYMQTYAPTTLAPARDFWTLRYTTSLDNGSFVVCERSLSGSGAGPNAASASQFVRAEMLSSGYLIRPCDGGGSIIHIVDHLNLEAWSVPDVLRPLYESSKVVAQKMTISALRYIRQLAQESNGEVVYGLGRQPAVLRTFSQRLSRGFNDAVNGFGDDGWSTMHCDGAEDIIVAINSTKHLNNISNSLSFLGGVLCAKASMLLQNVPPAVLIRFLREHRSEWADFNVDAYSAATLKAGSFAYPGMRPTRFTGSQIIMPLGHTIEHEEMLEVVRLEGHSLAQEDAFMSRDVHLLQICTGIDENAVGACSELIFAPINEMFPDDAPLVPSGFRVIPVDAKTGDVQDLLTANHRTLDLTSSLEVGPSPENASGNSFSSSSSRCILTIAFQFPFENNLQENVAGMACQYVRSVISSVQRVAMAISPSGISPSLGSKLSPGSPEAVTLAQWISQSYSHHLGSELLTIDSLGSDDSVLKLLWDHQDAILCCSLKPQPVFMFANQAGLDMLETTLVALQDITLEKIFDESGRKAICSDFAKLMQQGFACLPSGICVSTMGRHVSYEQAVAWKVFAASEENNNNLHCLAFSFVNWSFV

Measured: binding

AT3G10690.1
binds: [1]

NAP1;3 (AT5G56950.1) (from UniProt Q94K07 1-374)
binds: [1]

B1: REVOLUTA/IFL1 (REV) (protein, UniProt Q9SE43 1-842)
chain: T6 sequence
not listed: [1] | [8]
binds: all other assays above

B2: PHABULOSA/ATHB14 (PHB) (protein, UniProt O04291 1-852)
chain: T3 sequence
not listed: [1] | [3]
binds: all other assays above
